# Assay results: the supplement of paper PMC8728848
# This is one part of the list.
# B1: SP15308C-bot-338-23-338 (Bacteroides ovatus) (protein)
# chain: DEWTDEQFKQLISFKTQPGGWGVTDVHVRYANSAKYTYNLPVLVSGSTDNTDDRLVSFSLRDDTLDILNFEKFGNRPELYFRELPQKYYSFPKELTIPAGQSHALLPIEFSLDGLDDSQKWALPLKVCEDANGTYAVNPRKYYRTAVLRPILFNEFSGRFSGSSLLGTMAGESDIKFSSTEIKLNVVTDSIVFFYAGQRTEDYEDRINYKVFLQFTGDKVDSKKDLYKMKIWAENEKLKFNSYSTPTYKVSSEMDATKTYLKHTYIVISDIDFDFVDYTSVPNYEIEYNMKGGLSVSRDLDTRKPDEDQGSDSKWW
# Experiments:
# Test in all cases: glycan array binding signal (z-score within array); higher = stronger binding
# Conditions in all cases: glycan notation: IUPAC condensed, linker removed
# [1] = biological target: Neu5Ac(a2-6)GlcNAc(b1-4)GlcNAc(b1-4)GlcNAc
# How it was run: (§1)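 The Consortium for Functional Glycomics database supplied 3228 glycan arrays, of which those lacking an available protein sequence were dropped. The binding signal, a within-array Z-score, was averaged across arrays of the same protein sequence and across linkers. Negative scores can be read as non-binding.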
# Neu5Ac(a2-8)Neu5Ac = biological target: Neu5Ac(a2-8)Neu5Ac
# How it was run: as §1
# [2] = biological target: Neu5Ac(a2-8)Neu5Ac(a2-3)Gal(b1-3)GalNAc(b1-4)[Neu5Ac(a2-3)]Gal(b1-4)Glc
# How it was run: as §1
# [3] = biological target: Neu5Ac(a2-8)Neu5Ac(a2-3)Gal(b1-3)GalNAc(b1-4)[Neu5Ac(a2-8)Neu5Ac(a2-3)]Gal(b1-4)Glc
# How it was run: as §1
# [4] = biological target: Neu5Ac(a2-8)Neu5Ac(a2-3)Gal(b1-4)Glc
# How it was run: as §1
# [5] = biological target: Neu5Ac(a2-8)Neu5Ac(a2-3)Gal(b1-4)GlcNAc
# How it was run: as §1
# [6] = biological target: Neu5Ac(a2-8)Neu5Ac(a2-3)[Gal(b1-3)GalNAc(b1-4)]Gal(b1-4)Glc
# How it was run: as §1
# [7] = biological target: Neu5Ac(a2-8)Neu5Ac(a2-3)[GalNAc(b1-4)]Gal(b1-4)Glc
# How it was run: as §1
# [8] = biological target: Neu5Ac(a2-8)Neu5Ac(a2-8)Neu5Ac
# How it was run: as §1
# [9] = biological target: Neu5Ac(a2-8)Neu5Ac(a2-8)Neu5Ac(a2-3)Gal(b1-4)Glc
# How it was run: as §1
# [10] = biological target: Neu5Ac(a2-8)Neu5Ac(a2-8)Neu5Ac(a2-3)[Gal(b1-3)GalNAc(b1-4)]Gal(b1-4)Glc
# How it was run: as §1
# [11] = biological target: Neu5Ac(a2-8)Neu5Ac(a2-8)Neu5Ac(a2-3)[GalNAc(b1-4)]Gal(b1-4)Glc
# How it was run: as §1
# [12] = biological target: Neu5Ac(a2-8)Neu5Ac(a2-8)Neu5Ac(a2-8)Neu5Ac(a2-3)[GalNAc(b1-4)]Gal(b1-4)Glc
# How it was run: as §1
# [13] = biological target: Neu5Ac(a2-8)Neu5Gc(a2-3)Gal(b1-4)GlcNAc
# How it was run: as §1
# [14] = biological target: Neu5Ac(b2-6)Gal(b1-4)GlcNAc
# How it was run: as §1
# Neu5Ac(b2-6)GalNAc = biological target: Neu5Ac(b2-6)GalNAc
# How it was run: as §1
# [15] = biological target: Neu5Ac9Ac(a2-3)Gal(b1-3)GlcNAc
# How it was run: as §1
# [16] = biological target: Neu5Ac9Ac(a2-3)Gal(b1-4)GlcNAc
# How it was run: as §1
# [17] = biological target: Neu5Ac9Ac(a2-6)Gal(b1-4)GlcNAc
# How it was run: as §1
# [18] = biological target: Neu5Gc(a2-3)Gal(b1-3)GlcNAc
# How it was run: as §1
# [19] = biological target: Neu5Gc(a2-3)Gal(b1-3)[Fuc(a1-4)]GlcNAc
# How it was run: as §1
# Neu5Gc(a2-3)Gal(b1-4)Glc = biological target: Neu5Gc(a2-3)Gal(b1-4)Glc
# How it was run: as §1
# [20] = biological target: Neu5Gc(a2-3)Gal(b1-4)GlcNAc
# How it was run: as §1
# [21] = biological target: Neu5Gc(a2-3)Gal(b1-4)GlcNAc(b1-3)Gal(b1-4)GlcNAc(b1-2)Man(a1-3)[Neu5Gc(a2-3)Gal(b1-4)GlcNAc(b1-3)Gal(b1-4)GlcNAc(b1-2)Man(a1-6)]Man(b1-4)GlcNAc(b1-4)GlcNAc
# How it was run: as §1
# [22] = biological target: Neu5Gc(a2-3)Gal(b1-4)[Fuc(a1-3)]GlcNAc
# How it was run: as §1
# [23] = biological target: Neu5Gc(a2-6)Gal(b1-4)GlcNAc
# How it was run: as §1
# Neu5Gc(a2-6)GalNAc = biological target: Neu5Gc(a2-6)GalNAc
# How it was run: as §1
# [24] = biological target: Neu5Gc(a2-8)Neu5Ac(a2-3)Gal(b1-4)GlcNAc
# How it was run: as §1
# [25] = biological target: Neu5Gc(a2-8)Neu5Gc(a2-3)Gal(b1-4)GlcNAc
# How it was run: as §1
# [26] = biological target: Neu5Gc(a2-8)Neu5Gc(a2-3)Gal(b1-4)GlcNAc(b1-3)Gal(b1-4)GlcNAc
# How it was run: as §1
# [27] = biological target: Neu5Gc(a2-8)Neu5Gc(a2-6)Gal(b1-4)GlcNAc
# How it was run: as §1
# [28] = biological target: Neu5Gc(b2-6)Gal(b1-4)GlcNAc
# How it was run: as §1
binder,measurement,setting,value
B1,glycan array binding signal (z-score),[1],-0.236
same,glycan array binding signal (z-score),Neu5Ac(a2-8)Neu5Ac,-0.476
same,glycan array binding signal (z-score),[2],-0.324
same,glycan array binding signal (z-score),[3],0.574
same,glycan array binding signal (z-score),[4],-0.032
same,glycan array binding signal (z-score),[5],-0.606
same,glycan array binding signal (z-score),[6],-0.637
same,glycan array binding signal (z-score),[7],-0.312
same,glycan array binding signal (z-score),[8],-0.17
same,glycan array binding signal (z-score),[9],0.013
same,glycan array binding signal (z-score),[10],-0.219
same,glycan array binding signal (z-score),[11],-0.598
same,glycan array binding signal (z-score),[12],0.002
same,glycan array binding signal (z-score),[13],-0.236
same,glycan array binding signal (z-score),[14],-0.439
same,glycan array binding signal (z-score),Neu5Ac(b2-6)GalNAc,-0.832
same,glycan array binding signal (z-score),[15],0.029
same,glycan array binding signal (z-score),[16],0.148
same,glycan array binding signal (z-score),[17],-0.466
same,glycan array binding signal (z-score),[18],-0.389
same,glycan array binding signal (z-score),[19],0.492
same,glycan array binding signal (z-score),Neu5Gc(a2-3)Gal(b1-4)Glc,-0.607
same,glycan array binding signal (z-score),[20],-0.751
same,glycan array binding signal (z-score),[21],-0.584
same,glycan array binding signal (z-score),[22],-0.738
same,glycan array binding signal (z-score),[23],-0.639
same,glycan array binding signal (z-score),Neu5Gc(a2-6)GalNAc,-0.421
same,glycan array binding signal (z-score),[24],0.418
same,glycan array binding signal (z-score),[25],-0.714
same,glycan array binding signal (z-score),[26],-0.053
same,glycan array binding signal (z-score),[27],-0.343
same,glycan array binding signal (z-score),[28],0.812

# Shown tab-delimited: entries from further up
binder	measurement	setting	value
B1	glycan array binding signal (z-score)	[2]	-0.324
same	glycan array binding signal (z-score)	[8]	-0.17
same	glycan array binding signal (z-score)	[9]	0.013
same	glycan array binding signal (z-score)	[16]	0.148
same	glycan array binding signal (z-score)	[24]	0.418
same	glycan array binding signal (z-score)	[25]	-0.714
